According to patent US20020115059A1, “Drug screening system” (priority 2000, published 2002):
For at least one compound, name, drawing or mass did not settle the structure.

System: mouse ES cells
Test: In vitro hepatic differentiation of ES cells (EBs): marker mRNA expression by RT-PCR / real-time PCR
Format: cell-based
Details: late factors singly or as mixture, no early or mid factors, Day 18
Method: Cell Culture—The ES cell lines R1 (129Sv strain), W9.5 (129Sv), and SEK1 null (established from W9.5) (Ganiatsas et al., (1998) Proc. Natl. Acad. Sci. USA 95, 6881-6) were maintained undifferentiated in gelatin-coated dishes in DMEM (GIBCO BRL, Grand Island, N.Y.) containing 15% fetal bovine serum (Atlanta biologicals, Norcross, Ga.), 2 mM L-glutamine, 100 units/ml penicilin, 100 μg/ml streptomycin, 25 mM Hepes (GIBCO BRL), 300 μM monothioglycerol (Sigma, St. Louis, Mo.), and 250 unit/ml recombinant mouse LIF (ESGRO, CHEMICON, Temecula, Calif.). To induce differentiation, ES cells were suspended in IMDM containing 2 mM L-glutamine, 100 units/ml penicillin, 100 μg/ml streptomycin (GIBCO BRL), 20% fetal bovine serum (Atlanta biologicals) and 300 μM monothioglycerol (Sigma). Cells were cultured for 2 days by the hanging-drop method (1×10^3 ES cells per 30 μl in each drop) (Metzger et al., (1994) J. Cell. Biol. 126, 701-11). EBs in hanging drops were transferred to suspension culture in 100-mm petri dishes and cultured for an additional 3 days. […]
For each gene, the DNA primers were originated from different exons to ensure that the PCR product represented the specific mRNA species and not genomic DNA. Relative quantitation of albumin gene was performed by ABIPRISM5700 sequence detection system and SYBR green PCR master mix (PE Biosystems, Foster City, Calif.). […]

C[C@@H]1C[C@H]2[C@@H]3CCC4=CC(=O)C=C[C@]4(C)[C@@]3(F)[C@@H](O)C[C@]2(C)[C@@]1(O)C(=O)CO [Dex, dexamethasone]
TAT expression (FIG. 5b): slightly induced
